Laboratory results from paper PMC11233639.
Results are given in words; binding and its absence hold for the method and conditions named. Some results given as binding are weak or reduced against the parent protein; the word gives no strength.

Amino acid sequences for entries named in this document (tags omitted). Residues count along the entry.
UniProt P14618, residues 14-531: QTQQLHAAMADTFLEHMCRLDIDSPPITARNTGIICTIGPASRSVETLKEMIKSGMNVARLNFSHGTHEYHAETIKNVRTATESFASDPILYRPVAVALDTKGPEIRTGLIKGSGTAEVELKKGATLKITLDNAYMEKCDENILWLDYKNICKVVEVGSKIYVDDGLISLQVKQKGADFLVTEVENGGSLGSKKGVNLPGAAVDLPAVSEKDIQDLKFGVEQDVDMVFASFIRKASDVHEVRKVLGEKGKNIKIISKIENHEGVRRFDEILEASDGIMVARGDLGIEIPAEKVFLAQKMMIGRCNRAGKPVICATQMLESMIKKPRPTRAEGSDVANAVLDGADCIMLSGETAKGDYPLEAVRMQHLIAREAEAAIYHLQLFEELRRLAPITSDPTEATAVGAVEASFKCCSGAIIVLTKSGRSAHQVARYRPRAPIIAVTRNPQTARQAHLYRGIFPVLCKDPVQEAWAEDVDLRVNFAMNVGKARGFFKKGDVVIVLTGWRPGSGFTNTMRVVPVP
UniProt P04406: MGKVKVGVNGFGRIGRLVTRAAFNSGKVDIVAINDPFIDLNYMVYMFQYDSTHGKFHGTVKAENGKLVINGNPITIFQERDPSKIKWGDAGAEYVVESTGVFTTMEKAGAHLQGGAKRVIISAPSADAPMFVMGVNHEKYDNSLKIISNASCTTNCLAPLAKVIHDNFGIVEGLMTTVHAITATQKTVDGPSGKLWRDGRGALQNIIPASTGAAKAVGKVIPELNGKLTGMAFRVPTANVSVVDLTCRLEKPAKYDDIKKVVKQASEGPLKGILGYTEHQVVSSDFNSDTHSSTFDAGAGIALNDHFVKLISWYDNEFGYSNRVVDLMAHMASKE
UniProt P06733: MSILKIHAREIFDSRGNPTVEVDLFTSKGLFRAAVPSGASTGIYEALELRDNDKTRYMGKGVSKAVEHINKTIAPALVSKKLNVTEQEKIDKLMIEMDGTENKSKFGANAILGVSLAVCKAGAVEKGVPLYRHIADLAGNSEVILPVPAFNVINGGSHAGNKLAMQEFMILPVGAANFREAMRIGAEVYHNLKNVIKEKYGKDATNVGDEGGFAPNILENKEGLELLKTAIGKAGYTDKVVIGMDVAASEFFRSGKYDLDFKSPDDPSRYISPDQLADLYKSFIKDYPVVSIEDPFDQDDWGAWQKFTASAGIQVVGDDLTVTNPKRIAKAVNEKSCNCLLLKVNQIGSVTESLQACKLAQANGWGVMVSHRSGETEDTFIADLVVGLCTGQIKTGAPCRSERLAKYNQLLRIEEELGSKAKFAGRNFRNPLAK

Target: sfcherry-PKM2 (Pyruvate Kinase M2) (UniProt P14618)
Assay: FACS sorting of fluorescent aggregates with immunoblotting; sfcherry-PKM2 aggregates isolated from HeLa lysate as for the MS analysis; immunoblotting of PKM2 and of proteins with high abundance in the MS results

binding	Molecule
binds	Glyceraldehyde-3-phosphate dehydrogenase (GAPDH) (from UniProt P04406 1-335) (enzyme)
binds	α-Enolase (ENO1) (from UniProt P06733 1-434) (enzyme)
binds	PFKP (enzyme, UniProt Q01813 1-784) MDADDSRAPKGSLRKFLEHLSGAGKAIGVLTSGGDAQGMNAAVRAVVRMGIYVGAKVYFIYEGYQGMVDGGSNIAEADWESVSSILQVGGTIIGSARCQAFRTREGRLKAACNLLQRGITNLCVIGGDGSLTGANLFRKEWSGLLEELARNGQIDKEAVQKYAYLNVVGMVGSIDNDFCGTDMTIGTDSALHRIIEVVDAIMTTAQSHQRTFVLEVMGRHCGYLALVSALACGADWVFLPESPPEEGWEEQMCVKLSENRARKKRLNIIIVAEGAIDTQNKPITSEKIKELVVTQLGYDTRVTILGHVQRGGTPSAFDRILASRMGVEAVIALLEATPDTPACVVSLNGNHAVRLPLMECVQMTQDVQKAMDERRFQDAVRLRGRSFAGNLNTYKRLAIKLPDDQIPKTNCNVAVINVGAPAAGMNAAVRSAVRVGIADGHRMLAIYDGFDGFAKGQIKEIGWTDVGGWTGQGGSILGTKRVLPGKYLEEIATQMRTHSINALLIIGGFEAYLGLLELSAAREKHEEFCVPMVMVPATVSNNVPGSDFSIGADTALNTITDTCDRIKQSASGTKRRVFIIETMGGYCGYLANMGGLAAGADAAYIFEEPFDIRDLQSNVEHLTEKMKTTIQRGLVLRNESCSENYTTDFIYQLYSEEGKGVFDCRKNVLGHMQQGGAPSPFDRNFGTKISARAMEWITAKLKEARGRGKKFTTDDSICVLGISKRNVIFQPVAELKKQTDFEHRIPKEQWWLKLRPLMKILAKYKASYDVSDSGQLEHVQPWSV
no binding	HK2 (enzyme, UniProt P52789 1-917) MIASHLLAYFFTELNHDQVQKVDQYLYHMRLSDETLLEISKRFRKEMEKGLGATTHPTAAVKMLPTFVRSTPDGTEHGEFLALDLGGTNFRVLWVKVTDNGLQKVEMENQIYAIPEDIMRGSGTQLFDHIAECLANFMDKLQIKDKKLPLGFTFSFPCHQTKLDESFLVSWTKGFKSSGVEGRDVVALIRKAIQRRGDFDIDIVAVVNDTVGTMMTCGYDDHNCEIGLIVGTGSNACYMEEMRHIDMVEGDEGRMCINMEWGAFGDDGSLNDIRTEFDQEIDMGSLNPGKQLFEKMISGMYMGELVRLILVKMAKEELLFGGKLSPELLNTGRFETKDISDIEGEKDGIRKAREVLMRLGLDPTQEDCVATHRICQIVSTRSASLCAATLAAVLQRIKENKGEERLRSTIGVDGSVYKKHPHFAKRLHKTVRRLVPGCDVRFLRSEDGSGKGAAMVTAVAYRLADQHRARQKTLEHLQLSHDQLLEVKRRMKVEMERGLSKETHASAPVKMLPTYVCATPDGTEKGDFLALDLGGTNFRVLLVRVRNGKWGGVEMHNKIYAIPQEVMHGTGDELFDHIVQCIADFLEYMGMKGVSLPLGFTFSFPCQQNSLDESILLKWTKGFKASGCEGEDVVTLLKEAIHRREEFDLDVVAVVNDTVGTMMTCGFEDPHCEVGLIVGTGSNACYMEEMRNVELVEGEEGRMCVNMEWGAFGDNGCLDDFRTEFDVAVDELSLNPGKQRFEKMISGMYLGEIVRNILIDFTKRGLLFRGRISERLKTRGIFETKFLSQIESDCLALLQVRAILQHLGLESTCDDSIIVKEVCTVVARRAAQLCGAGMAAVVDRIRENRGLDALKVTVGVDGTLYKLHPHFAKVMHETVKDLAPKCDVSFLQSEDGSGKGAALITAVACRIREAGQR
